Among the data in the supplement of paper PMC10849652 are log2 fold change values, retold here.

Sequences of proteins named here, by UniProt entry; tags and fusion partners are left off. A change or cut given only in a name is not applied to a line headed by its entry.
UniProt Q8IX15: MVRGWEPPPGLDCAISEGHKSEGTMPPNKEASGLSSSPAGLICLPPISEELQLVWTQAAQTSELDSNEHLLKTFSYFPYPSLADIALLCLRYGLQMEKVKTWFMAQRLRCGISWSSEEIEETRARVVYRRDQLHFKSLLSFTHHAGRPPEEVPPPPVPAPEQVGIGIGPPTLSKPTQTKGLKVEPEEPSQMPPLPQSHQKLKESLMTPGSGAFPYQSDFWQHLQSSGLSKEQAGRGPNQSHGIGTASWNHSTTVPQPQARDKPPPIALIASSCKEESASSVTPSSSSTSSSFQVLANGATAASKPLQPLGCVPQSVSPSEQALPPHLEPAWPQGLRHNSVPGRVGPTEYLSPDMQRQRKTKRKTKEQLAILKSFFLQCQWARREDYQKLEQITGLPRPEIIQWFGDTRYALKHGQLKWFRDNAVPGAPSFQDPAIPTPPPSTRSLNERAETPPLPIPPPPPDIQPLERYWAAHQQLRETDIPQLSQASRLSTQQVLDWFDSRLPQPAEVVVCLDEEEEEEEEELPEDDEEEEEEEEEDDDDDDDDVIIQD
UniProt Q3SXM5: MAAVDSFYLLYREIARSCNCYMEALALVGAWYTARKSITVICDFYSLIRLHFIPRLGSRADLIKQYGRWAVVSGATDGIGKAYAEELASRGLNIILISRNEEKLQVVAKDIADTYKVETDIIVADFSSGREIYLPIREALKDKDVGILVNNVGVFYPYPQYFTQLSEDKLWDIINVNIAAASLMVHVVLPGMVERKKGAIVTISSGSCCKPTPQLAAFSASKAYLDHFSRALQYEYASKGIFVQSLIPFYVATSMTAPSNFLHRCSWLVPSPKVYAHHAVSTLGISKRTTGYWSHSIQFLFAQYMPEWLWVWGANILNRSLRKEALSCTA
UniProt P51991: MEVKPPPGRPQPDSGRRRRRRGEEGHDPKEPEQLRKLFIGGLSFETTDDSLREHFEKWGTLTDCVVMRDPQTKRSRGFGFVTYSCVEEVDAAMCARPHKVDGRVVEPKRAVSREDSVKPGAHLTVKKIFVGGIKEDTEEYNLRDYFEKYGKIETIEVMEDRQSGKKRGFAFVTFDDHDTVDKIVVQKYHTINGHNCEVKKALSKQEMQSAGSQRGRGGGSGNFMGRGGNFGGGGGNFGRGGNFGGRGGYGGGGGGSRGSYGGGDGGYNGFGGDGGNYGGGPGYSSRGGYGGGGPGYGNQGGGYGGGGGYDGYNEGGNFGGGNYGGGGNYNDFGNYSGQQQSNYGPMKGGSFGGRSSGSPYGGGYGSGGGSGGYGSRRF
UniProt P56937: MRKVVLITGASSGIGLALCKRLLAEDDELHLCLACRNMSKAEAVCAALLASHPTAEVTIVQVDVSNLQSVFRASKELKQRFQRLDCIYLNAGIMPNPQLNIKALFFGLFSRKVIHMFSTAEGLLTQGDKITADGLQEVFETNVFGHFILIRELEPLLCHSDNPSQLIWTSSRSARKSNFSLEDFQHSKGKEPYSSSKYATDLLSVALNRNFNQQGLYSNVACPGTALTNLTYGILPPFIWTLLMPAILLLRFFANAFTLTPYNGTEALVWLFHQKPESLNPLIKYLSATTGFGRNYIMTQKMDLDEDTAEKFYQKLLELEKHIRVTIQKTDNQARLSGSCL
UniProt P08238, whole entry, looked up: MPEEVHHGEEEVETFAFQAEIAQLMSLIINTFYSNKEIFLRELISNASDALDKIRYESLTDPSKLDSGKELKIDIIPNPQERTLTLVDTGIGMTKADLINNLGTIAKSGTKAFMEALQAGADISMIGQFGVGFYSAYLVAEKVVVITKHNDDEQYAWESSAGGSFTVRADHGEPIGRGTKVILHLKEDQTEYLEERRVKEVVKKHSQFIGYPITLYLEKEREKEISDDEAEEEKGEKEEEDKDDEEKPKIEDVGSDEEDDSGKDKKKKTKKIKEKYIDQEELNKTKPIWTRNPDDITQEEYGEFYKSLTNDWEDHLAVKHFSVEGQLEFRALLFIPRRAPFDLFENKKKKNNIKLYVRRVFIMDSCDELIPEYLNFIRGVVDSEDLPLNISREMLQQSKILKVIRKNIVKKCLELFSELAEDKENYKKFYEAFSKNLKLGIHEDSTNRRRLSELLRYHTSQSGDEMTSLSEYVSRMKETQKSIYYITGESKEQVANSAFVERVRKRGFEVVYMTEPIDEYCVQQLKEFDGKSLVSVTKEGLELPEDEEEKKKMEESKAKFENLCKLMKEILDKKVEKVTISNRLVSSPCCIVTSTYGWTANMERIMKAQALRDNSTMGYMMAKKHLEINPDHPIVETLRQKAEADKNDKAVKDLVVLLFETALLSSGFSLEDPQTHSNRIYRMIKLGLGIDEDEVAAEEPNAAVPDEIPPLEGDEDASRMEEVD
UniProt P26583: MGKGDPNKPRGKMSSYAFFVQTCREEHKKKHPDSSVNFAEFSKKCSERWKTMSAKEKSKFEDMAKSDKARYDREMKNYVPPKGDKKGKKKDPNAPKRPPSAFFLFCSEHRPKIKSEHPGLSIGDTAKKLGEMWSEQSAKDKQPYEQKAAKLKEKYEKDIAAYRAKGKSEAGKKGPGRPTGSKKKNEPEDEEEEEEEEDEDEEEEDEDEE
UniProt Q8NBQ5: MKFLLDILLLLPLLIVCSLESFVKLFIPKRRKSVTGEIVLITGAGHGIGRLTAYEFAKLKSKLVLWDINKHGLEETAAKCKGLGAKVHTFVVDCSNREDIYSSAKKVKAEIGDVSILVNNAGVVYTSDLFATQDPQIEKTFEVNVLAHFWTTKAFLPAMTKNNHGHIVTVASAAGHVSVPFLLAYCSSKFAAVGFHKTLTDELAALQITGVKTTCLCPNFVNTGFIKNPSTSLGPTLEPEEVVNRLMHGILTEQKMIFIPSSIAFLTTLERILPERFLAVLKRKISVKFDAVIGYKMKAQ
UniProt Q8WVV9: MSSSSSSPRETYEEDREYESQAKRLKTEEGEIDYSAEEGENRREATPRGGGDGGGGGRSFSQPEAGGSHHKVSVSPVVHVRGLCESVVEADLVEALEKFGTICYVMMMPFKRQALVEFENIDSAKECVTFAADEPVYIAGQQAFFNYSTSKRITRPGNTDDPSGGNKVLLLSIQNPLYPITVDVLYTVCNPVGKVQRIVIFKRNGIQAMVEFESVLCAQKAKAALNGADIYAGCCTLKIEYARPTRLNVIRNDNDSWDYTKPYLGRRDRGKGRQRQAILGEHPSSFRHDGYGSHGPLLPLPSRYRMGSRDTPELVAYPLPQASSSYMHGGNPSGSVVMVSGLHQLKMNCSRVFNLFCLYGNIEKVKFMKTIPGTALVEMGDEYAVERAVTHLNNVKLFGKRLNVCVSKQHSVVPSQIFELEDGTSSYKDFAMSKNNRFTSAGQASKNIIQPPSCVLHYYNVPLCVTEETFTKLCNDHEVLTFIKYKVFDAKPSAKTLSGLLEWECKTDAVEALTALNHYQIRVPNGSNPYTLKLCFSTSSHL
UniProt O15347: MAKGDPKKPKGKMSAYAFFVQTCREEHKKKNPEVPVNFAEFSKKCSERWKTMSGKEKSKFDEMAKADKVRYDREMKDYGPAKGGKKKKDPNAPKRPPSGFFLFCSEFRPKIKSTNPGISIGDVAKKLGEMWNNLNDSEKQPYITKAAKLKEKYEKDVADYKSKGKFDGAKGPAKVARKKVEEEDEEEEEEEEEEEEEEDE
UniProt Q6NVY1: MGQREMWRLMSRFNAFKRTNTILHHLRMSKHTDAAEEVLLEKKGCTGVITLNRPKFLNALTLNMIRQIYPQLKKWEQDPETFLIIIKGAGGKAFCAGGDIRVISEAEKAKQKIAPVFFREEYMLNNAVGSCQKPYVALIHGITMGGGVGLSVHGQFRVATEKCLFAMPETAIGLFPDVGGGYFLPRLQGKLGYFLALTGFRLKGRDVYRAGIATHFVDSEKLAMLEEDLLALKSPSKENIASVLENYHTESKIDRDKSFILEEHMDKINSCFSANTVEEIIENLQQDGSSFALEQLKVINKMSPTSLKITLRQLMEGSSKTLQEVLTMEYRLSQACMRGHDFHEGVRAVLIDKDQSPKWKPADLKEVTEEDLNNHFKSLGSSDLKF
UniProt O75506: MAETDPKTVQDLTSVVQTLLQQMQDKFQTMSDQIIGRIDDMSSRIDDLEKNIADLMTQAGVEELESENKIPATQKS
UniProt P52789: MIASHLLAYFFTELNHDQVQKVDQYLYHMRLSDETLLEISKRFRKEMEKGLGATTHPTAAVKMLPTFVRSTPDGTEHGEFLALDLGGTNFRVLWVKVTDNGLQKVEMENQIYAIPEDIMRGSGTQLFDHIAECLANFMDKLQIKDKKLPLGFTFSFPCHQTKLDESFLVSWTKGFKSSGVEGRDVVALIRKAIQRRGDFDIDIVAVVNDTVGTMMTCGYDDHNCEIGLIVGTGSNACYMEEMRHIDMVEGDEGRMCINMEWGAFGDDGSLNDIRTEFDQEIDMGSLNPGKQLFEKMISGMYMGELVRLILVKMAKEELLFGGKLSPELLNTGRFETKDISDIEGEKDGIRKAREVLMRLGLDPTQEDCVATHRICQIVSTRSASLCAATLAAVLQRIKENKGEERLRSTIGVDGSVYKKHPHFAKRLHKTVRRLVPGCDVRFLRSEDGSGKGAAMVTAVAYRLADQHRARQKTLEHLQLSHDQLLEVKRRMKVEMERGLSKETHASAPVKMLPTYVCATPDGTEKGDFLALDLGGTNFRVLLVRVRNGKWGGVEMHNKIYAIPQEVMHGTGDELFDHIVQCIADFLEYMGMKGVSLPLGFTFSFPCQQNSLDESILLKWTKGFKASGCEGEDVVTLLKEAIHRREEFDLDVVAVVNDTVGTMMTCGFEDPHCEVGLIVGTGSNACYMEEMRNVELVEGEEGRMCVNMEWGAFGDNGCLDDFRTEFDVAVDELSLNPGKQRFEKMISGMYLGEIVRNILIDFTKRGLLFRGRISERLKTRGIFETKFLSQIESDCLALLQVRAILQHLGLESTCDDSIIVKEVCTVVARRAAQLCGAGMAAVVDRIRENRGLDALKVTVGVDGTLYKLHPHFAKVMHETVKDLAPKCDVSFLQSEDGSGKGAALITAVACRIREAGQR
UniProt Q9BW71: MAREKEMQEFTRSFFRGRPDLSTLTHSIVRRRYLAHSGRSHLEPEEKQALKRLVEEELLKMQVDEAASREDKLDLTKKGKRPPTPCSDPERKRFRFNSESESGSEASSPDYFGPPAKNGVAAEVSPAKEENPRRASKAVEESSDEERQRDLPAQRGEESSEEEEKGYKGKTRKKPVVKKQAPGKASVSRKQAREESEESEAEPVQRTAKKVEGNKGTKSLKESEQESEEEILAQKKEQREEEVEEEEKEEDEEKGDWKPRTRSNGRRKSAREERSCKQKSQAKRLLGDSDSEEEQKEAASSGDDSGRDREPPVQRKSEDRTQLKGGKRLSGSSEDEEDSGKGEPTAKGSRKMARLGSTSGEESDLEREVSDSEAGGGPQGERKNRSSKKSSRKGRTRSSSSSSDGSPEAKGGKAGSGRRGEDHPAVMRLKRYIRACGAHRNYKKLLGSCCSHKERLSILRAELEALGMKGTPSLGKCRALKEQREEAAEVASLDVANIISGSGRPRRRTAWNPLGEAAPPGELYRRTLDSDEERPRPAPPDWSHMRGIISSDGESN
UniProt H0YH80: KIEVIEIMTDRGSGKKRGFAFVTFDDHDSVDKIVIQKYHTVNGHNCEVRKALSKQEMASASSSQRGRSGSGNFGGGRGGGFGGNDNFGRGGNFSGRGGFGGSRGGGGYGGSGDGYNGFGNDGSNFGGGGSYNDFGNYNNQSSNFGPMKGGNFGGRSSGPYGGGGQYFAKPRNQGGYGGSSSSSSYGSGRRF
UniProt P14625, whole entry, looked up: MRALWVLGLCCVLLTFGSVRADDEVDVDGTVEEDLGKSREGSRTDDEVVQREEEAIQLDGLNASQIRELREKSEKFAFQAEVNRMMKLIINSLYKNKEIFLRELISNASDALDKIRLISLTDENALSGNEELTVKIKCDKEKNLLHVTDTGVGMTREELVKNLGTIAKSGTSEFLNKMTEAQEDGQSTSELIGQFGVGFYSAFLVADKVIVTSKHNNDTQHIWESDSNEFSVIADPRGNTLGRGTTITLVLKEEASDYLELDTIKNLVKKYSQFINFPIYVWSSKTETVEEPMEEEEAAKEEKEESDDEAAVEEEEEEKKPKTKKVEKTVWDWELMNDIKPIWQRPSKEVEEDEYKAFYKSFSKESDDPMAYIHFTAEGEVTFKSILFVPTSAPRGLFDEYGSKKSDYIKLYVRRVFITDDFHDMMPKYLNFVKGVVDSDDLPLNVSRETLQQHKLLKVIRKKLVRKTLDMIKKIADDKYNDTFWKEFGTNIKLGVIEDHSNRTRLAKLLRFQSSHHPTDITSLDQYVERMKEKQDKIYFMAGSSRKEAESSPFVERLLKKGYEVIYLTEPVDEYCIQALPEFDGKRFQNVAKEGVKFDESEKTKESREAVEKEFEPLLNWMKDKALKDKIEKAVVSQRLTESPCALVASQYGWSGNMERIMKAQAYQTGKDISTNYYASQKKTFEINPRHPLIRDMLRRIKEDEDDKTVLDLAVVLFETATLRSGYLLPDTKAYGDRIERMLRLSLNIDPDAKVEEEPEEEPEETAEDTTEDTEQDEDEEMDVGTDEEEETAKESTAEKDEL

This is one part of the list.

Compound in this experiment: O=C(CCCCCCC(=O)Nc1ccccc1)NO [vorinostat]
The experiment in a line: log2 fold change, soluble protein after heating vs DMSO (PISA); higher = thermal stabilisation; K562 lysate, 10 uM; active = over 0.2 and 3.5 SD of the protein, either way, in both replicates (recomputed). An outline of the steps:
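A 30 min treatment with 10 μM compound was applied to crude K562 extract at 1 mg/mL protein in PBS pH 7.4 with 1 mM MgCl2. Heating for 3 min spanned 48°C-58°C, after which aliquots were pooled, adjusted to 0.5% NP-40 at 4°C and spun at 21,000xg for 90 min. TMTpro 16plex LC-MS/MS of the supernatant, with channel sums equalised, gave values recorded as log-two fold change in thermal stability against solvent controls, from duplicates.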
As to HNRNPR isoform 2 (UniProt O43390), the log2 fold change is inactive: -0.123.
For the target HERC4 (UniProt Q5GLZ8), the log2 fold change was inactive: 0.012.
With HOMEZ isoform 3 (UniProt Q8IX15), the log2 fold change was inactive: -0.056.
Regarding HSDL1 (UniProt Q3SXM5), the log2 fold change was inactive: -0.006.
HNRNPA3 (UniProt P51991): the log2 fold change was inactive: 0.026.
Regarding HEXD isoform 2 (UniProt Q8WVB3), the log2 fold change was inactive: -0.215.
In the case of HSD17B7 (UniProt P56937), the log2 fold change was inactive: -0.24.
On to HSP90AB1 (UniProt P08238), for which the log2 fold change is inactive: 0.119.
With HELQ (UniProt Q8TDG4), the log2 fold change is inactive: 0.001.
On to HMGB2 (UniProt P26583), for which the log2 fold change was inactive: 0.122.
Regarding HNRNPAB isoform 3 (UniProt Q99729), the log2 fold change is inactive: 0.189.
For HNRNPK isoform 3 (UniProt P61978), the log2 fold change was inactive: 0.112.
For the target HSD17B11 (UniProt Q8NBQ5), the log2 fold change was inactive: 0.076.
For HMGXB4 (UniProt Q9UGU5) the value was inactive: 0.317.
In the case of HNRNPL (UniProt P14866), the log2 fold change is active: -0.445.
Regarding HNRNPLL (UniProt Q8WVV9), the log2 fold change was active: -0.653.
With HMG20A (UniProt Q9NP66), the log2 fold change is inactive: 0.084.
For HNRNPA0 (UniProt Q13151) the value was inactive: -0.211; for HMGB3 (UniProt O15347), inactive: 0.127; for HIBCH (UniProt Q6NVY1), inactive: 0.108.
For HMGN5 (UniProt P82970), the log2 fold change is inactive: 0.14.
With HMGN1 (UniProt P05114), the log2 fold change was inactive: 0.134.
For HSBP1 (UniProt O75506) the value was inactive: 0.229.
For HK2 (UniProt P52789) the value was active: -0.443.
Take HSP90AB4P (UniProt Q58FF6): the log2 fold change is inactive: 0.174.
Regarding HNRNPH3 (UniProt P31942), the log2 fold change was inactive: -0.096.
For HINT3 (UniProt Q9NQE9) the value was inactive: -0.109.
Consider HSPA2 (UniProt P54652), for which the log2 fold change was inactive: -0.009.
The same measure for HPRT1 (UniProt P00492): inactive: 0.108.
With HSF1 (UniProt Q00613), the log2 fold change is inactive: 0.035.
In the case of HIRIP3 (UniProt Q9BW71), the log2 fold change was inactive: 0.084.
Turning to HNRNPA1 (UniProt H0YH80), the log2 fold change is inactive: 0.115.
For the target HSP90B1 (UniProt P14625), the log2 fold change is inactive: 0.135.
